Results taken from paper PMC10984625.
These are yes or no findings as the source states them, for the method shown. Binding seen in cells or lysates may run through a third protein. Some binding calls cover weakened binding; strength is not graded here. Where a sequence is shown, tags or fusion partners need not be part of it.

Chains of the proteins cited; added tags and fusions are not shown. Lines headed by an entry give the natural chain unless they say otherwise; changes in a name come on top. A line that says so, or that is headed by a name, gives the form on record, which may keep a tag or linker.
UniProt Q61151: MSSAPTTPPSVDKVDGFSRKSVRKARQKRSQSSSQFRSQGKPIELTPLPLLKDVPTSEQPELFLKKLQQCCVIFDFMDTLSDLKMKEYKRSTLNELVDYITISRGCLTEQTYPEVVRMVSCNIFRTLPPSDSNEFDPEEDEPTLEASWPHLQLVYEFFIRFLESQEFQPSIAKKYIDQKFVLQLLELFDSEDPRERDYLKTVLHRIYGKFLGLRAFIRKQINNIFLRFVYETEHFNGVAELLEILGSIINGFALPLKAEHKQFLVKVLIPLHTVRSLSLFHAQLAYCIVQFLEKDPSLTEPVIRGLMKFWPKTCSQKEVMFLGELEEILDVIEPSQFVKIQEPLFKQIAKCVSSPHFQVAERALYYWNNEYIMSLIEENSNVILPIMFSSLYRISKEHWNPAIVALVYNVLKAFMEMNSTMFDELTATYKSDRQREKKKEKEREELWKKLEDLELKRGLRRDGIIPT
UniProt Q6PD03: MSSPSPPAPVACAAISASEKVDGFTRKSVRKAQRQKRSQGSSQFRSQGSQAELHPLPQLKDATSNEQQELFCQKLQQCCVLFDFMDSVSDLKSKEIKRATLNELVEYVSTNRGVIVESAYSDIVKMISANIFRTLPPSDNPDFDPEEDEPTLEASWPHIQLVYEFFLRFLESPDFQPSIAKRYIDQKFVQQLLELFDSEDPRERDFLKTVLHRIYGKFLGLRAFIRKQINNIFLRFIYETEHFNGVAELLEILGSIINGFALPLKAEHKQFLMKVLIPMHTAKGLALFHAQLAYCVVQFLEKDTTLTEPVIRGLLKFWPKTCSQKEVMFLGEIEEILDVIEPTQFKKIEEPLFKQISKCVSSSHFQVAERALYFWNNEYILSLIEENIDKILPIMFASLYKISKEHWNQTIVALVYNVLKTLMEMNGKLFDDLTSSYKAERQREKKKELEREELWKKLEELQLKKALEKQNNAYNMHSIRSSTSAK
dynamin 1 like (DNM1L) (Q8K1M6-6, form named): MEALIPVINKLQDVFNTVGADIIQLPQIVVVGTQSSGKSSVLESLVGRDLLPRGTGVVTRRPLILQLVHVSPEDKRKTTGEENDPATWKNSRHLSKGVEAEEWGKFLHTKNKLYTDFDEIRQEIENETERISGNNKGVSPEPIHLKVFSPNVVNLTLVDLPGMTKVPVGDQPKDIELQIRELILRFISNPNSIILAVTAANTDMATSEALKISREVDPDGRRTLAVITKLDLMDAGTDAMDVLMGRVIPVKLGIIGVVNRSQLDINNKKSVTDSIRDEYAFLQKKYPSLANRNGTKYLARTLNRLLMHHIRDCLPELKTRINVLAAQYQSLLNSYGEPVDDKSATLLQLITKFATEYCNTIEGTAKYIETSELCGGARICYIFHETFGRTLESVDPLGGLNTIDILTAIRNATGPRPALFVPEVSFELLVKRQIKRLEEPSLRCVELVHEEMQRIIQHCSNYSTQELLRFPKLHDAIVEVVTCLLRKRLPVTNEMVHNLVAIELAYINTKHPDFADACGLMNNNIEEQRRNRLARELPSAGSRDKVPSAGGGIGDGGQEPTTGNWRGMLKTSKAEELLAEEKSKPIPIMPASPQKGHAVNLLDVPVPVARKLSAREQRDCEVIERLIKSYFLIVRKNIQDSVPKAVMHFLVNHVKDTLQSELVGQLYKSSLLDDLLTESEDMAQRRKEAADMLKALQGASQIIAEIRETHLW

T1: reticulon 3 (RTN3) (mouse (endogenous in hippocampus of 3xTg-AD mice)) (UniProt Q9ES97)
T1 sequence: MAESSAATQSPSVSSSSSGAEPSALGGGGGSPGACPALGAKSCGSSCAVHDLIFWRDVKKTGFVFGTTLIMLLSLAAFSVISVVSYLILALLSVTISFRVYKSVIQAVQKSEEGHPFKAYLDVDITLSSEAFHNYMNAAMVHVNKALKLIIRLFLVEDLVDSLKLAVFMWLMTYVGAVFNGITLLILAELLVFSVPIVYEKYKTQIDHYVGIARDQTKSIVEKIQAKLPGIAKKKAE

B1: solute carrier family 25, member 46 (SLC25A46) (protein, UniProt Q9CQS4 1-418)
chain: MHPRRPEGFDGLGYRGGVRDDPAFGGPFHARSFGSGTELGHWVTTPPDIPGSRNLHWGEKSPSYGVPSAPPTLEGSAEEPFPGGGEGPRPGPSSEQLNRFAGFGIGLASLFTENVLAHPCIVLRRQCQVNYHARHYHLTPFSIINIMYSFNKTQGPRALWKGMGSTFIVQGVTLGAEGIISEFTPLPREVSHKLNPKQIGEHLLLKCLTYMVAMPFYSASLIETVQSEIIRDNTGILECVKEGIGRVIGLGVPHSKRLLPLFSLIFPTVLHGVLHYIISSIIQKIVLLILKRKTYNSHLAESTSPMQNMLDAYFPELIANFAASLCSDVILYPLETVLHRLHIQGTRTIIDNTDLGYEVLPINTQYEGMRDCINTIKQEEGVFGFYKGFGAVIIQYTLHATILQITKMIYSTLLQNSI
B2: RAS-related protein RAB3B (protein, UniProt Q9CZT8 1-219)
chain: MASVTDGKTGIKDASDQNFDYMFKLLIIGNSSVGKTSFLFRYADDTFTPAFVSTVGIDFKVKTVYRHEKRVKLQIWDTAGQERYRTITTAYYRGAMGFILMYDITNEESFNAVQDWATQIKTYSWDNAQVILVGNKCDMEEERVVPTEKGRLLAEQLGFDFFEASAKENISVRQAFERLVDAICDKMSDSMDTDPSVLGASKTTRLSDTPPLLQQNCSC
B3: synaptogyrin-1 (SYNGR1) (protein, UniProt O55100-1 1-234)
chain: MEGGAYGAGKAGGAFDPYTLVRQPHTILRVVSWVFSIVVFGSIVNEGYLNNPEEEEEFCIYNRNPNACSYGVTVGVLAFLTCLLYLALDVYFPQISSVKDRKKAVLSDIGVSAFWAFFWFVGFCFLANQWQVSKPKDNPLNEGTDAARAAIAFSFFSIFTWAGQAVLAFQRYQIGADSALFSQDYMDPSQDSSMPYAPYVEPSAGSDPAGMGGTYQHPANAFDAEPQGYQSQGY
B4: PPP2R2C (protein, UniProt Q8BG02 1-447)
chain: MGEDTDTRKINHSFLRDHSYVTEADVISTVEFNHTGELLATGDKGGRVVIFQREPESKNAPHSQGEYDVYSTFQSHEPEFDYLKSLEIEEKINKIKWLPQQNAAHSLLSTNDKTIKLWKITERDKRPEGYNLKDEEGKLKDLSTVTSLQVPVLKPMDLMVEVSPRRTFANGHTYHINSISVNSDCETYMSADDLRINLWHLAITDRSFNIVDIKPANMEDLTEVITASEFHPHHCNLFVYSSSKGSLRLCDMRAAALCDKHSKLFEEPEDPSNRSFFSEIISSVSDVKFSHSGRYMLTRDYLTVKVWDLNMEARPIETYQVHDYLRSKLCSLYESDCIFDKFECAWNGSDSVIMTGAYNNFFRMFDRNTKRDVTLEASRESSKPRAVLKPRRVCVGGKRRRDDISVDSLDFTKKILHTAWHPAENIIAIAATNNLYIFQDKVNSDMH

These molecules were tested against T1, reticulon 3 (RTN3) (mouse (endogenous in hippocampus of 3xTg-AD mice)) (assay: co-IP; hippocampal tissue of group-housed or socially isolated AD mice lysed in RIPA buffer; 1 mg protein with 2 ug RTN3 antibody at 4 C overnight, protein A + G agarose beads 4 h, washed with PBS; Western blot for the partners; normal rabbit IgG as negative control; also done on senktide-treated mice (Fig. S11A-J)).

Row | Molecule | binding
1 | PPP2R5E (from UniProt Q61151 1-467) | binds
2 | PPP2R5A (from UniProt Q6PD03 1-486) | binds
3 | dynamin 1 like (DNM1L) (from UniProt Q8K1M6-6 1-712) | binds
4 | B1 | binds
5 | B2 | binds
6 | B3 | binds
7 | B4 | binds
